From the supplement of paper PMC6411743
± gives the standard deviation of the averaged measurements. The list shows a part of the results, in another mix than the full data. Small differences around the control level are noise.

Sequences of proteins named here, by UniProt entry; tags and fusion partners are left off. A change or cut given only in a name is not applied to a line headed by its entry.
UniProt P15291: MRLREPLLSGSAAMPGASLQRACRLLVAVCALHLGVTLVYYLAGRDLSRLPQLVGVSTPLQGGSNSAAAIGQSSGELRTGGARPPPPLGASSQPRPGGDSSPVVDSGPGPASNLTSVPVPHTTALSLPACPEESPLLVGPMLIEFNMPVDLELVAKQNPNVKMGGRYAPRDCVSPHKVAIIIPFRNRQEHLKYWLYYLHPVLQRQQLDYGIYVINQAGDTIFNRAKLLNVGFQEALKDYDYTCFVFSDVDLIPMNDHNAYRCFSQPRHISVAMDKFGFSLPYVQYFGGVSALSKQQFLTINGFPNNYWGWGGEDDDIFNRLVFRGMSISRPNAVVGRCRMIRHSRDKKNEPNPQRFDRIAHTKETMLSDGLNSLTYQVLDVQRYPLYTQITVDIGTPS
UniProt P16083: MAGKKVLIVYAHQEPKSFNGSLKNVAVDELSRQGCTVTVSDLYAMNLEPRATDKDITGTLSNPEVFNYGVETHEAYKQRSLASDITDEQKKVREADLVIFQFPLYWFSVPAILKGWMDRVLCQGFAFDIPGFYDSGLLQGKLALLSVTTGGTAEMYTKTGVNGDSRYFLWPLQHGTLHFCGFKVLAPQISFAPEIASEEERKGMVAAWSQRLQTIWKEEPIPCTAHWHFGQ
UniProt P14316: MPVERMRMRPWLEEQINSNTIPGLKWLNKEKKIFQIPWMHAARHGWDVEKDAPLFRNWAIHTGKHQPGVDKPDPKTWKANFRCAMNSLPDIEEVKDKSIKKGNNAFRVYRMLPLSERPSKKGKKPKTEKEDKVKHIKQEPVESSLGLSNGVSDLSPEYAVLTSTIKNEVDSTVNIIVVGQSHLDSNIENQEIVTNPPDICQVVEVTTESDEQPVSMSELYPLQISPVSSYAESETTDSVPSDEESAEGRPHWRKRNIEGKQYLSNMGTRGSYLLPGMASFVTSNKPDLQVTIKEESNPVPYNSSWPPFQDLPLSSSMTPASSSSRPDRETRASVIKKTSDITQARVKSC
UniProt P14618, whole entry, looked up: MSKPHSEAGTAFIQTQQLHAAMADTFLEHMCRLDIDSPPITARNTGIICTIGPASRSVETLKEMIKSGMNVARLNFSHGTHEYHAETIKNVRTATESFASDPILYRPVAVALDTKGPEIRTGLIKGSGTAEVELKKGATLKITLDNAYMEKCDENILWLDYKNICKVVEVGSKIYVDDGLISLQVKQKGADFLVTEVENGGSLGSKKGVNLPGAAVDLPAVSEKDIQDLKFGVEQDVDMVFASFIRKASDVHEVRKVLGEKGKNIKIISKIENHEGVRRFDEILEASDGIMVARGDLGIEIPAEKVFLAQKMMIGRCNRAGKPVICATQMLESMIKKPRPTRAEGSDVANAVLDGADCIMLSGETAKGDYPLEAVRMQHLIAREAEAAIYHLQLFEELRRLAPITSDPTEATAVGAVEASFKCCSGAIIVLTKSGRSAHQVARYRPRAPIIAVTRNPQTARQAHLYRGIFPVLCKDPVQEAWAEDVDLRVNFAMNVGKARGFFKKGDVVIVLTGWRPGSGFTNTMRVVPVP
UniProt O95721: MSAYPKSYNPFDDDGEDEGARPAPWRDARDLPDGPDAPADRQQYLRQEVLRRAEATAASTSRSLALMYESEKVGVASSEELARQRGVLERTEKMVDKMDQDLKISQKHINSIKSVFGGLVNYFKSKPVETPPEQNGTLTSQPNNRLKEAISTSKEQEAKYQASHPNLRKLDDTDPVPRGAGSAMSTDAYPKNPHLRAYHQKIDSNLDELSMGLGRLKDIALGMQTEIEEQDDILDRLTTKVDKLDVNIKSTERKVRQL
UniProt P04406: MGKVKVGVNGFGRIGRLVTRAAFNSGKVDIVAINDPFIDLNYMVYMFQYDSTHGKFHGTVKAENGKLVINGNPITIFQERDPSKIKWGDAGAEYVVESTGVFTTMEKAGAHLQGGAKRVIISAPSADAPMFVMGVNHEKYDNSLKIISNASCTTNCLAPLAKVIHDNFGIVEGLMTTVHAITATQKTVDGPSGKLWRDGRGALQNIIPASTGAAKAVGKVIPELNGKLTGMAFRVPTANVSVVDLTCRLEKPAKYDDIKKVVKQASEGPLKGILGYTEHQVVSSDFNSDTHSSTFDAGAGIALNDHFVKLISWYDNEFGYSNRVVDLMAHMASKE
UniProt P07919: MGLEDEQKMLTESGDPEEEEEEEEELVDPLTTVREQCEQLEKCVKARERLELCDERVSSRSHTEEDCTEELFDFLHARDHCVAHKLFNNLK
UniProt O95834: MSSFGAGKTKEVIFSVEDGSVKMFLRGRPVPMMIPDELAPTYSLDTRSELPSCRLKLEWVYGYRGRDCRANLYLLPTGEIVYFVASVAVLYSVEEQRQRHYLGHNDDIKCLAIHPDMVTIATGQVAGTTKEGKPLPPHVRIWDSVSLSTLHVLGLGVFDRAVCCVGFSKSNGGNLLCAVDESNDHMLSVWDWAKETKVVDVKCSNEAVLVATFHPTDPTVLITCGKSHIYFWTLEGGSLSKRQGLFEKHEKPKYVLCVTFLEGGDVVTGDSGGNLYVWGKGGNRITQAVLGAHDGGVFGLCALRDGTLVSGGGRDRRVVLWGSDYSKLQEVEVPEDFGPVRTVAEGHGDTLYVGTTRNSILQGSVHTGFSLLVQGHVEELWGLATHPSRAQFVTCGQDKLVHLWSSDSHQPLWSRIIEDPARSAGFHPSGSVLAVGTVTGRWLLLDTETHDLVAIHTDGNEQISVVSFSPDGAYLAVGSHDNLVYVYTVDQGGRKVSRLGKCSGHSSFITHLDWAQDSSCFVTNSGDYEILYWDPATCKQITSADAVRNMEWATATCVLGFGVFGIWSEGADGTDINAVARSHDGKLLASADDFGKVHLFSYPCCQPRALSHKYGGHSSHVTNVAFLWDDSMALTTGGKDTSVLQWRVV
UniProt P05114: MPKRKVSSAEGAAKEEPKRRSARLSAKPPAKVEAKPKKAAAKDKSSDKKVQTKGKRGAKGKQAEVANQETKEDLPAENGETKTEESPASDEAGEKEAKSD
UniProt P14635, whole entry: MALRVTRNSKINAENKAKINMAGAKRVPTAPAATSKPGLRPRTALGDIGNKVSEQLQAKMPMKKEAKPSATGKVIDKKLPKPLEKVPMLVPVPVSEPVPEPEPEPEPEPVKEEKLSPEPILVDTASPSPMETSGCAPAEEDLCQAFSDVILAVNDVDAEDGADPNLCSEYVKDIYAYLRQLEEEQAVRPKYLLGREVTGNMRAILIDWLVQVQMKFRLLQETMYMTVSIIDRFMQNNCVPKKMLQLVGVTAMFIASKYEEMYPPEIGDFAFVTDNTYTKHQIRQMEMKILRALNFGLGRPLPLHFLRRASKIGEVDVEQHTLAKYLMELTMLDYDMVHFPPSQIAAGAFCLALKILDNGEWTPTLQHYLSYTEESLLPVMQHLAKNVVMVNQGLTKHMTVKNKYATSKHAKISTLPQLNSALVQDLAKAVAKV
UniProt P07737, whole entry: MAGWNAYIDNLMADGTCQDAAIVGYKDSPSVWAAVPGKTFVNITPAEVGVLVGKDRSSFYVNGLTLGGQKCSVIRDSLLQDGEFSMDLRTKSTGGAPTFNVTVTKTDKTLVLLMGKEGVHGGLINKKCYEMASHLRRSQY
UniProt P09417: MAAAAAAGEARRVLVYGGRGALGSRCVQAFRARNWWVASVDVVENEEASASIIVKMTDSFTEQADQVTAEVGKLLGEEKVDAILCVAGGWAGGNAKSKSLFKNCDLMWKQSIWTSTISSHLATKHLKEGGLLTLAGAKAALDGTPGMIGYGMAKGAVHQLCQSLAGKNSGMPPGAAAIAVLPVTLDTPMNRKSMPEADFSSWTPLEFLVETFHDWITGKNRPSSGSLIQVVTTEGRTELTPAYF
UniProt O96006: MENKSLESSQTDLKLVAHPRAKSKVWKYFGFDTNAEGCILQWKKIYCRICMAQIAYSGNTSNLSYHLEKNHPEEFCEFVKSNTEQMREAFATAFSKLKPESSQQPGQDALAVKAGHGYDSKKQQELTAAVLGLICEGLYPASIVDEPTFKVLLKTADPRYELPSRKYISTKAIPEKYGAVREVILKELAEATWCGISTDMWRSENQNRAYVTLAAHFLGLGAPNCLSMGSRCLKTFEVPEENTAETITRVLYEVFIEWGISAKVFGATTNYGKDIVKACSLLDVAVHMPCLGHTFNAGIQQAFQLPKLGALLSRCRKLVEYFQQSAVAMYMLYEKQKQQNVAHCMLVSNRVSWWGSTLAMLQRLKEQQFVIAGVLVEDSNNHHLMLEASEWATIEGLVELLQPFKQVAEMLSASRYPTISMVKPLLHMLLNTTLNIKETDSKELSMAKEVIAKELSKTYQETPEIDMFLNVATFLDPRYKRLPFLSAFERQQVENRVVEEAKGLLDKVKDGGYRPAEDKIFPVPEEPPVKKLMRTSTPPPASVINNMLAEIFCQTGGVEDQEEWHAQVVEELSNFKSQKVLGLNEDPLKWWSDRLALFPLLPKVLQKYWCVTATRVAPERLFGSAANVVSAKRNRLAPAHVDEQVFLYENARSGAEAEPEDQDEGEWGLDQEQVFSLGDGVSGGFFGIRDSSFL
UniProt P35520: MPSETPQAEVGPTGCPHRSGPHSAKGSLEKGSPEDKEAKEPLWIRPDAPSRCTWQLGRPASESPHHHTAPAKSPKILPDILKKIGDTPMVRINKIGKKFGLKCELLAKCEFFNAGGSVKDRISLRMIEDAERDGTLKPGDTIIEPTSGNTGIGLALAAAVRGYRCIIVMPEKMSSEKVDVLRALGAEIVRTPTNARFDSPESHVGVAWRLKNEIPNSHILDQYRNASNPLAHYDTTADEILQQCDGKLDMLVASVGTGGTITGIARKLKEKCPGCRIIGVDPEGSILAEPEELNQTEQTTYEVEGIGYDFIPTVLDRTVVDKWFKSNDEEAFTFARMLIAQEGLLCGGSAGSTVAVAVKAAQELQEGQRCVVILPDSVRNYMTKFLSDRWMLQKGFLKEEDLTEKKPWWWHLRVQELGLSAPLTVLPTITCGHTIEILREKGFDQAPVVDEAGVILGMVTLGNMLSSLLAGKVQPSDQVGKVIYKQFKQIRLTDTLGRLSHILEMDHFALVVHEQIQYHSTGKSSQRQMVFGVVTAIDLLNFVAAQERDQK
UniProt O95881: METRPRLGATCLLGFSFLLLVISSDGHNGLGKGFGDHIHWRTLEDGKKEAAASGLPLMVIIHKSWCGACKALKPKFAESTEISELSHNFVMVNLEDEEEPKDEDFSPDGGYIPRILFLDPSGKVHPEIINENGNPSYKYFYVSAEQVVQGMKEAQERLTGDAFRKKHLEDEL
UniProt P14927: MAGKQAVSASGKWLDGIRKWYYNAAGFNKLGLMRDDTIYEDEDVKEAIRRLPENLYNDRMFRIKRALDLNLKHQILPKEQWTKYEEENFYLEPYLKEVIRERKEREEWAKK
UniProt P09543: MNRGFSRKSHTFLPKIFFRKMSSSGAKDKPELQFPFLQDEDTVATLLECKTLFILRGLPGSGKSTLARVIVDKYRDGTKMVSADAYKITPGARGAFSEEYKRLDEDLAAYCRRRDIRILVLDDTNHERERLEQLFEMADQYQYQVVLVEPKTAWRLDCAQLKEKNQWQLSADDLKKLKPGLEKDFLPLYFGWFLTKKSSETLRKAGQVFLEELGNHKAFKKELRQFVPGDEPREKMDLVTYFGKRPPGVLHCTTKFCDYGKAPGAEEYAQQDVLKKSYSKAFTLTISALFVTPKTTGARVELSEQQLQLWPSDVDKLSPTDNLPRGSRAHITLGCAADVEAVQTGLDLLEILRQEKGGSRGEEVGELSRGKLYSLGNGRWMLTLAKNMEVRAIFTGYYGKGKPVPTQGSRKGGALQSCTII

Compound: Nc1ncnc2c1ncn2[C@@H]1O[C@H](COP(=O)(O)OP(=O)(O)NP(=O)(O)O)[C@@H](O)[C@H]1O [adenylyl imidodiphosphate]
Test: NP40-soluble protein abundance relative to vehicle (solubility fold change) (ratio); higher = more soluble protein in presence of AMP-PNP
Method in brief: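 Across three independent experiments, values are fold changes against the detergent-processed vehicle for each replicate, based on vsn-normalised intensities. The samples were Jurkat crude lysate treated with eight concentrations (0.1 to 10 mM) for 10 min at room temperature and then 3 min at 37 °C. Lysate was solubilised with 0.8% NP40 and benzonase, ultracentrifuged, and the supernatant analysed by TMT-labelled LC-MS/MS.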

Target	NP40-soluble protein abundance (concentration: 0.1mM)	NP40-soluble protein abundance (concentration: 0.5mM)
UniProt P15291 and related entries	0.988 ± 0.031	0.991 ± 0.022
UniProt P16083 and related entries	0.979 ± 0.024	0.999 ± 0.022
UniProt P14316 and related entries	0.991 ± 0.036	1 ± 0.049
UniProt P14618 and related entries	1.05 ± 0.072	0.929 ± 0.11
SNAP29 (UniProt O95721)	0.985 ± 0.083	0.989 ± 0.074
GAPDH (UniProt P04406)	0.996 ± 0.085	1.01 ± 0.012
UQCRH (UniProt P07919)	0.974 ± 0.036	0.967 ± 0.052
UniProt P13473-2	0.942 ± 0.025	0.986 ± 0.033
UniProt O95834 and related entries	1.002 ± 0.01	0.964 ± 0.047
UniProt P0C869-6|P0C869-7|P0C869-8	1.018 ± 0.0014	1 ± 0.051
HMGN1 (UniProt P05114)	1.07 ± 0.071	1.28 ± 0.27
UniProt P14635 and related entries	1.01 ± 0.033	1.02 ± 0.045
CTSB (UniProt P07858)	1.01 ± 0.025	1.02 ± 0.025
PFN1 (UniProt P07737)	0.993 ± 0.1	0.975 ± 0.024
QDPR (UniProt P09417)	0.968 ± 0.028	0.982 ± 0.017
ZBED1 (UniProt O96006)	0.98 ± 0.039	0.999 ± 0.039
P0DN79 and related entries (UniProt P35520+P0DN79)	1.01 ± 0.013	0.985 ± 0.042
TXNDC12 (UniProt O95881)	0.96 ± 0.037	1 ± 0.056
UQCRB (UniProt P14927)	0.98 ± 0.07	1.02 ± 0.11
UniProt P09651-2|P09651	1.04 ± 0.073	1.07 ± 0.078
UniProt P09543 and related entries	0.995 ± 0.016	1 ± 0.033

Whole records, quoted from the list. Order of values: NP40-soluble protein abundance (concentration: 0.1mM)	NP40-soluble protein abundance (concentration: 0.5mM)
UniProt P14618 and related entries in the list: 1.05 ± 0.072	0.929 ± 0.11
QDPR (UniProt P09417) in the list: 0.968 ± 0.028	0.982 ± 0.017
